# PubChem BioAssay AID1259405 | NCATS – 2018
# Assay: 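Mouse-designed siRNAs used to find CHO productivity engineering targets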 (primary screen)
# System: Chinese hamster CHO-K1 ovary cells with stable secreted eGFP expression
# Reagent: single siRNA against mouse genes, 0.8 pmol siRNA per well (2 µl of 400 nM stock)
# Duration: 3 days
# Measured: 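Per-well intracellular GFP measured by laser scanning cytometry, plus viability from ATP luminescence, each relative to plate median of non-targeting control wells, in %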
# Direction: GFP, % of control: higher = more GFP per well, higher productivity; viability (ATP), % of control: higher = more viable cells (more ATP)
# Active means: 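a knock-down is called active if GFP reaches 120% or more of non-targeting control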
# The deposit covers about 50,000 reagents; below is a random part of them. Of all reagents, about 4,000 (8%) were called active. 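Mouse siRNA library applied to hamster cells; one well for each siRNA.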 Reagents against one gene are numbered here.
gene knocked down,reagent,"GFP, % of control","viability (ATP), % of control",Call
Ankrd34b (ankyrin repeat domain 34B),1,41.6,26.5,inactive
Ankrd34b (ankyrin repeat domain 34B),2,90.1,104,inactive
Ankrd34b (ankyrin repeat domain 34B),3,90.5,110,inactive
Mslnl (mesothelin-like),1,64.3,66.2,inactive
Mslnl (mesothelin-like),2,54,46.2,inactive
Mslnl (mesothelin-like),3,82.6,79.7,inactive
Pnpt1 (polyribonucleotide nucleotidyltransferase 1),1,111,86.8,inactive
Pnpt1 (polyribonucleotide nucleotidyltransferase 1),2,115,98.4,inactive
Pnpt1 (polyribonucleotide nucleotidyltransferase 1),3,82.3,94.2,inactive
"Raver1 (ribonucleoprotein, PTB-binding 1)",1,115,101,inactive
"Raver1 (ribonucleoprotein, PTB-binding 1)",2,73,91.4,inactive
"Raver1 (ribonucleoprotein, PTB-binding 1)",3,74.9,55.3,inactive
Nim1k (NIM1 serine/threonine protein kinase),1,117,78.5,inactive
Nim1k (NIM1 serine/threonine protein kinase),2,80.1,73.6,inactive
Nim1k (NIM1 serine/threonine protein kinase),3,86.7,96,inactive
Guca1a (guanylate cyclase activator 1a (retina)),1,168,101,active
Guca1a (guanylate cyclase activator 1a (retina)),2,98.6,87.8,inactive
Guca1a (guanylate cyclase activator 1a (retina)),3,131,63.5,active
Casz1 (castor zinc finger 1),1,51,50.3,inactive
Casz1 (castor zinc finger 1),2,88.9,97.3,inactive
Casz1 (castor zinc finger 1),3,89.3,75.1,inactive
Ints1 (integrator complex subunit 1),1,74.7,92.7,inactive
Ints1 (integrator complex subunit 1),2,128,69.6,active
Ints1 (integrator complex subunit 1),3,58,72.3,inactive
Rpl22l1 (ribosomal protein L22 like 1),1,82,63.1,inactive
Rpl22l1 (ribosomal protein L22 like 1),2,82.4,75.5,inactive
Rpl22l1 (ribosomal protein L22 like 1),3,115,59.4,inactive
Gpd1 (glycerol-3-phosphate dehydrogenase 1 (soluble)),1,103,77,inactive
Gpd1 (glycerol-3-phosphate dehydrogenase 1 (soluble)),2,77.4,76.2,inactive
Gpd1 (glycerol-3-phosphate dehydrogenase 1 (soluble)),3,76.3,64.8,inactive

Copied from above, 7 entries:
gene knocked down,reagent,"GFP, % of control","viability (ATP), % of control",Call
Guca1a (guanylate cyclase activator 1a (retina)),2,98.6,87.8,inactive
Guca1a (guanylate cyclase activator 1a (retina)),3,131,63.5,active
Casz1 (castor zinc finger 1),1,51,50.3,inactive
Casz1 (castor zinc finger 1),2,88.9,97.3,inactive
Casz1 (castor zinc finger 1),3,89.3,75.1,inactive
Ints1 (integrator complex subunit 1),1,74.7,92.7,inactive
Ints1 (integrator complex subunit 1),2,128,69.6,active

The list goes on:
gene knocked down,reagent,"GFP, % of control","viability (ATP), % of control",Call
Or4e5 (olfactory receptor family 4 subfamily E member 5),1,83.7,77.7,inactive
Or4e5 (olfactory receptor family 4 subfamily E member 5),2,117,69.7,inactive
Or4e5 (olfactory receptor family 4 subfamily E member 5),3,72.4,97,inactive
Rpl29 (ribosomal protein L29),1,72.3,45.4,inactive
Rpl29 (ribosomal protein L29),2,87.4,114,inactive
Rpl29 (ribosomal protein L29),3,46.9,37.8,inactive
Pdcd1lg2 (programmed cell death 1 ligand 2),1,50.4,39.8,inactive
Pdcd1lg2 (programmed cell death 1 ligand 2),2,94.7,68.6,inactive
Pdcd1lg2 (programmed cell death 1 ligand 2),3,83.7,75.6,inactive
Mterf2 (mitochondrial transcription termination factor 2),1,106,107,inactive
Mterf2 (mitochondrial transcription termination factor 2),2,72.1,82.8,inactive
Mterf2 (mitochondrial transcription termination factor 2),3,39.1,32.1,inactive
Lrr1 (leucine rich repeat protein 1),1,75.5,80,inactive
Lrr1 (leucine rich repeat protein 1),2,63.8,83.5,inactive
Mpst (mercaptopyruvate sulfurtransferase),1,28.4,30.1,inactive
Mpst (mercaptopyruvate sulfurtransferase),2,92.2,96.5,inactive
Mpst (mercaptopyruvate sulfurtransferase),3,71.2,73,inactive
Tmx2 (thioredoxin-related transmembrane protein 2),1,61.1,64.1,inactive
Tmx2 (thioredoxin-related transmembrane protein 2),2,91.6,96.6,inactive
Pramel3a (PRAME like 3A),1,76.8,85.1,inactive
Pramel3a (PRAME like 3A),2,94.7,74.1,inactive
Pramel3a (PRAME like 3A),3,93.6,154,inactive
"Naga (N-acetyl galactosaminidase, alpha)",1,69.3,72.5,inactive
"Naga (N-acetyl galactosaminidase, alpha)",2,66.9,78.3,inactive
"Naga (N-acetyl galactosaminidase, alpha)",3,59.5,75.6,inactive
Ggnbp2 (gametogenetin binding protein 2),1,79.2,80.1,inactive
Ggnbp2 (gametogenetin binding protein 2),2,45.6,54.1,inactive
Ggnbp2 (gametogenetin binding protein 2),3,66.2,89.3,inactive
